# Test system: T1, NHE3
# T1 construct: from tissue; host or cells: intestine of living SD rats
# Test: Sodium and phosphate excretion in urine after oral NaH2PO4 bolus in rats
# Type: in vivo
# Procedure: To assess sodium and phosphate absorption in rats, we took advantage of the increase in urinary sodium and phosphate excretion following an oral bolus of sodium phosphate. Thus, an LY3304000 dependent decrease in urinary sodium and phosphate excretion following an oral bolus dose of sodium phosphate is an indirect measurement of the ability of LY3304000 to inhibit sodium and phosphate absorption in intestine. A dosing solution of 3 mg/kg LY3304000 for a 10 mL/kg dose volume was formulated in 1% HEC. The subsequent dosing solutions of 1, 0.3, 0.1, 0.03, 0.01, 0.003, and 0.001 mg/kg LY3304000 were prepared by serial dilutions with 1% HEC. […] In this and subsequent studies where phosphate absorption is measured, a 4 hour fast was used which is less disruptive to the animal’s normal physiology than the 12 hours fast used to measure acute phosphate uptake into plasma. […] The net urine volume was recorded. Urinary sodium, creatinine, and phosphorus (as a measure of phosphate) were determined using a clinical biochemistry analyzer. The urinary sodium-to-creatinine and phosphorus-to-creatinine ratios were calculated and compared between vehicle and LY3304000 treated groups. The ratios of urinary-to-dietary phosphate (measured as phosphorus) and urinary-to-dietary sodium in urine were compared between vehicle and LY3304000 treated groups.
compound,measurement,value
"CN1Cc2c(Cl)cc(Cl)cc2[C@H](c2cccc(S(=O)(=O)NCCOCCOCCN/C(=N\C(N)=O)NCCCCN/C(=N/C(N)=O)NCCOCCOCCNS(=O)(=O)c3cccc([C@@H]4CN(C)Cc5c(Cl)cc(Cl)cc54)c3)c2)C1.Cl.Cl [LY3304000, (Z)-[[4-[[(Z)-N’-carbamoyl-N-[2-[2-[2-[[3-[(4S)-6,8-dichloro-2-methyl-3,4-dihydro-1H-isoquinolin-4-yl]phenyl]sulfonylamino]ethoxy]ethoxy]ethyl]carbamimidoyl]amino]butylamino]-[2-[2-[2-[[3-[(4S)-6,8-dichloro-2-methyl-3,4-dihydro-1H-isoquinolin-4-yl]phenyl]sulfonylamino]ethoxy]ethoxy]ethylamino]methylene]urea dihydrochloride]","slope of the curve, urinary phosphate excretion",1.90
same,"slope of the curve, urinary sodium excretion",2.13

# Reference: article PMC10817170, “Effect of an NHE3 inhibitor in combination with an NPT2b inhibitor on gastrointestinal phosphate absorption in Rodent models” (PLOS ONE, 2024)
